Test results from US20230340127A1, “METHODS AND COMPOSITIONS FOR CANCER TREATMENT BY INHIBITION OF FBXO44” (Sanford Burnham Prebys Medical Discovery Institute, priority 2022, published 2023).
Results are given in words; binding and its absence hold for the method and conditions named. Binding seen in cells or lysates may run through a third protein. Some binding calls cover weakened binding; strength is not graded here.

Target: CUL4A (endogenous), Q13619
Assay: co-IP of endogenous FBXO44 in MDA-MB-231 cells, immunoblot; CRL4 components named CUL4A/CUL4B in the legend of FIG. 4A
Conditions: remark: other sources report otherwise

- binding: binds
B1: FBXO44 (endogenous F-box protein FBXO44), Q9H4M3 1-255 (protein, human, UniProt Q9H4M3 1-255, looked up)
chain: MAVGNINELPENILLELFTHVPARQLLLNCRLVCSLWRDLIDLVTLWKRKCLREGFITEDWDQPVADWKIFYFLRSLHRNLLHNPCAEEGFEFWSLDVNGGDEWKVEDLSRDQRKEFPNDQVKKYFVTSYYTCLKSQVVDLKAEGYWEELMDTTRPDIEVKDWFAARPDCGSKYQLCVQLLSSAHAPLGTFQPDPATIQQKSDAKWREVSHTFSNYPPGVRYIWFQHGGVDTHYWAGWYGPRVTNSSITIGPPLP
